Laboratory results taken from US20080213860.
Substitutions are numbered along the chain they refer to. The exact form of at least one protein or probe is not confirmed. Where a protein sequence is shown, tags need not be part of it.

What was measured:
Experiment in all cases: enzyme reaction in vitro
[1] = system: T1, BsmI R32D (Bacillus stearothermophilus NUB36); conditions: ds-DNA cleavage; protein in an extract; only the site is given
T1 sequence: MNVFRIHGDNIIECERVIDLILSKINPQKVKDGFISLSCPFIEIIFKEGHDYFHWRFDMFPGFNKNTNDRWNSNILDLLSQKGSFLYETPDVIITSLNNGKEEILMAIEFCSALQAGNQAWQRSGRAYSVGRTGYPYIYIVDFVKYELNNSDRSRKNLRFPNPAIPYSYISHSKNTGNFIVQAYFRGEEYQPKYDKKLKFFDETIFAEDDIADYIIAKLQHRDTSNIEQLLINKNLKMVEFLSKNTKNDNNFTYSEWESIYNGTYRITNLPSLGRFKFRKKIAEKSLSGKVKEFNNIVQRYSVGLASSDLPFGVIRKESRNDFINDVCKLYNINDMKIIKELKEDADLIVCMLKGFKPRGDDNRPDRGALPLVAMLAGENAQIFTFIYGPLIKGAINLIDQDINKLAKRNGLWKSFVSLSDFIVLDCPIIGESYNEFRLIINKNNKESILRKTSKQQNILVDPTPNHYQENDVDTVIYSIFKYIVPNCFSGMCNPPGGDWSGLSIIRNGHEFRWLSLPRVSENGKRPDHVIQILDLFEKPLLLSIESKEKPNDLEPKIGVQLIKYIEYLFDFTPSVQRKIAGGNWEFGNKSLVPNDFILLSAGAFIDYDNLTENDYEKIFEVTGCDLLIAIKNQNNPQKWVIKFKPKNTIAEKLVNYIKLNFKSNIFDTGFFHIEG

[2] = system: T2, BsmI R438D (Bacillus stearothermophilus NUB36); conditions: ds-DNA cleavage; protein in an extract; only the site is given
T2 sequence: T1 sequence with D32R, R438D

[3] = system: T3, Nb.BsmI (E546V) (Bacillus stearothermophilus NUB36); conditions: nicking higher than triple mutant; ds-DNA cleavage about 10%; bottom strand ^GCATTC; purified recombinant protein; protein details: also assayed as crude cell extract; only the site is given
T3 sequence: T1 sequence with D32R, E546V

[4] = system: T4, Nb.BsmI (R507D/G509V/E546V) (Bacillus stearothermophilus NUB36); conditions: high nicking activity, bottom strand ^GCATTC by run-off sequencing; active 25-75 C; no linear DNA with 1-30 units in buffer 3 (100 mM NaCl), 65 C 1 h; purified recombinant protein; only the site is given
T4 sequence: T1 sequence with D32R, R507D, G509V, E546V

Measured: activity on this sequence

GCATTC [pBR322 supercoiled plasmid (one BsmI site)]
active: [1] | [2] | [3] | [4]
